According to article PMC10547647:
These are yes or no findings as the source states them, for the method shown. In cells and extracts the contact can be indirect. Some results given as binding are weak or reduced against the parent protein; the word gives no strength.

The chains behind the UniProt entries cited, without tags or fusion partners.
UniProt P06748: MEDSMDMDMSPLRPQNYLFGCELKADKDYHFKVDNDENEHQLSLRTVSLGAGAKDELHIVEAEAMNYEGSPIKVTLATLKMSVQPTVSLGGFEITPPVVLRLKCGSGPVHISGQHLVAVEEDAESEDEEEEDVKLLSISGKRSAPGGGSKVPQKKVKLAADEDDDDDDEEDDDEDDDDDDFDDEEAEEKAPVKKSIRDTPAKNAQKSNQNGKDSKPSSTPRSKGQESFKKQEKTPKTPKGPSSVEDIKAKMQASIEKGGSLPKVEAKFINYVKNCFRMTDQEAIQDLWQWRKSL
UniProt Q9GZP8: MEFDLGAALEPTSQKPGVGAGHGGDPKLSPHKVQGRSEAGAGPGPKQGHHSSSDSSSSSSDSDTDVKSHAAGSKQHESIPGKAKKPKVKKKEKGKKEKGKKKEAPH

Assays:
[1] = biological target: Nucleophosmin (NPM1), endogenous (human (endogenous in BxPC-3)) (UniProt P06748); assay: co-IP; endogenous proteins of BxPC-3 cells; IP by anti-NPM1, Western blot
[2] = biological target: GFP-tagged IMUP (immortalization-upregulated protein) (UniProt Q9GZP8); assay: co-IP; BxPC-3 cells transfected with GFP-tagged IMUP; IP by GFP beads, Western blot

| Substance | binding [1] | binding [2] |
| --- | --- | --- |
| Immortalization-upregulated protein (IMUP), endogenous (from UniProt Q9GZP8 1-106) | binds |  |
| Nucleophosmin (NPM1), endogenous (from UniProt P06748 1-294) |  | binds |
